This is one part of the list.
Compound: C1CN(CCC1(CC2=CC=C(C=C2)Cl)N)C3=NC=NC4=C3C=CN4
Assay: log2 fold change, soluble protein after heating vs DMSO (PISA); higher = thermal stabilisation; K562 lysate, 10 uM; active = over 0.2 and 3.5 SD of the protein, either way, in both replicates (recomputed)
Method in brief: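 Values give the log-two fold change in thermal stability against solvent controls, from duplicates. Crude K562 extract at 1 mg/mL protein, made by dounce homogenisation in PBS pH 7.4 with 1 mM MgCl2, was treated with 10 μM compound for 30 min. After 3 min heating across 48°C-58°C, aliquots were pooled, adjusted to 0.5% NP-40 at 4°C and centrifuged at 21,000xg for 90 min. The supernatant was measured by TMTpro 16plex LC-MS/MS with channel sums equalised.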

Chains of the proteins cited; added tags and fusions are not shown. Lines headed by an entry give the natural chain unless they say otherwise; changes in a name come on top.
UniProt Q9UQB8: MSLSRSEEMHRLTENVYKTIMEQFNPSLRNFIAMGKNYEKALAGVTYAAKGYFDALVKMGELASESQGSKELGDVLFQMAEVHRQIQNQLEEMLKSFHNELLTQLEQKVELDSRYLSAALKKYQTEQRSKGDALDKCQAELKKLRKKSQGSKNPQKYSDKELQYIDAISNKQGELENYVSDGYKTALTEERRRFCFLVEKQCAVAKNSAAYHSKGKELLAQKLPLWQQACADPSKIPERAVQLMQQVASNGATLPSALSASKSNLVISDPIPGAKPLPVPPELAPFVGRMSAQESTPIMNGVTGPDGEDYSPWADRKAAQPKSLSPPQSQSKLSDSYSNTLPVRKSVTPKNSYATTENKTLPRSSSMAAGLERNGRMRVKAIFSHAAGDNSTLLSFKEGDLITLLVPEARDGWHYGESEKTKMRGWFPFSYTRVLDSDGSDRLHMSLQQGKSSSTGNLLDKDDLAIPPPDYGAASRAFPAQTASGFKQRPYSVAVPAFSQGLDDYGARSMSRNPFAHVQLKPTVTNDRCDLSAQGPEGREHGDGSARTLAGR
UniProt P46379: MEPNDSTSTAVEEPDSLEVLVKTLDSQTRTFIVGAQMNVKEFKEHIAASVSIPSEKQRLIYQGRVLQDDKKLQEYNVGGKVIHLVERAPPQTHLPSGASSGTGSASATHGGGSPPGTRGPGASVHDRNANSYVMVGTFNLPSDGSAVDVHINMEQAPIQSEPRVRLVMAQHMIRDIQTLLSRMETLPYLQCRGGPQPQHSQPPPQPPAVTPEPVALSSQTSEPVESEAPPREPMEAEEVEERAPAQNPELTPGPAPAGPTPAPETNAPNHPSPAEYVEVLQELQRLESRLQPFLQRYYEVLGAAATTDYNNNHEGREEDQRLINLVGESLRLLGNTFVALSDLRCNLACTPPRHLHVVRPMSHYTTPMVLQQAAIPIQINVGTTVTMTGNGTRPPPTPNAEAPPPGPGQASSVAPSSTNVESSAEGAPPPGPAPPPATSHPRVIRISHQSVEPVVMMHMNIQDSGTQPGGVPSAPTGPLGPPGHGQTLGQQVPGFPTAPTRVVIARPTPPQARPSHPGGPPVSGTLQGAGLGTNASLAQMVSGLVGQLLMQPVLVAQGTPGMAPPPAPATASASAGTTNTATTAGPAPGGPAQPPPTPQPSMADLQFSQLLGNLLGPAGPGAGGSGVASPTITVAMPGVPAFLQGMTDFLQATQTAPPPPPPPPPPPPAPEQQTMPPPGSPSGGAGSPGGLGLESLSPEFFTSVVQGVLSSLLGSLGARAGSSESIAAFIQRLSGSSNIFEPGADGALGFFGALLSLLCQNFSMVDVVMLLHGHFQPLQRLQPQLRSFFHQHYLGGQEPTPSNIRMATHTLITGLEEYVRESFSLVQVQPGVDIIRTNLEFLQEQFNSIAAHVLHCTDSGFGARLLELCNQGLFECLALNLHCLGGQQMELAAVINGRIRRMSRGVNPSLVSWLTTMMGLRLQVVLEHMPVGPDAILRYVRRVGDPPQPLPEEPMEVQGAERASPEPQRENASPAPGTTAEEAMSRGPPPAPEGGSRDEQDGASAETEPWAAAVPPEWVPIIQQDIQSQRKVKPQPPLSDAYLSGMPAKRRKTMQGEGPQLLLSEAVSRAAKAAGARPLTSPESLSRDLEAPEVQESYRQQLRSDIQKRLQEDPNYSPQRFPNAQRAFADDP
UniProt Q99933: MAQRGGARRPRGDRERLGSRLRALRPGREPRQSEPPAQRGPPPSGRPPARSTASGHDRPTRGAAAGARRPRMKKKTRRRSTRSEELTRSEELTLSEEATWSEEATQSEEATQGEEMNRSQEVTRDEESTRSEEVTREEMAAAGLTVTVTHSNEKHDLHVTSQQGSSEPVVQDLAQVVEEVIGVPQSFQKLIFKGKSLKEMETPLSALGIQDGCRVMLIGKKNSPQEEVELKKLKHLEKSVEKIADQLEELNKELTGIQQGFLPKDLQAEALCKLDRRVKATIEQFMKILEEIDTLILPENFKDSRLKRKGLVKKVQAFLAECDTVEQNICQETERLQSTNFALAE
UniProt Q9NYF8, whole entry, looked up: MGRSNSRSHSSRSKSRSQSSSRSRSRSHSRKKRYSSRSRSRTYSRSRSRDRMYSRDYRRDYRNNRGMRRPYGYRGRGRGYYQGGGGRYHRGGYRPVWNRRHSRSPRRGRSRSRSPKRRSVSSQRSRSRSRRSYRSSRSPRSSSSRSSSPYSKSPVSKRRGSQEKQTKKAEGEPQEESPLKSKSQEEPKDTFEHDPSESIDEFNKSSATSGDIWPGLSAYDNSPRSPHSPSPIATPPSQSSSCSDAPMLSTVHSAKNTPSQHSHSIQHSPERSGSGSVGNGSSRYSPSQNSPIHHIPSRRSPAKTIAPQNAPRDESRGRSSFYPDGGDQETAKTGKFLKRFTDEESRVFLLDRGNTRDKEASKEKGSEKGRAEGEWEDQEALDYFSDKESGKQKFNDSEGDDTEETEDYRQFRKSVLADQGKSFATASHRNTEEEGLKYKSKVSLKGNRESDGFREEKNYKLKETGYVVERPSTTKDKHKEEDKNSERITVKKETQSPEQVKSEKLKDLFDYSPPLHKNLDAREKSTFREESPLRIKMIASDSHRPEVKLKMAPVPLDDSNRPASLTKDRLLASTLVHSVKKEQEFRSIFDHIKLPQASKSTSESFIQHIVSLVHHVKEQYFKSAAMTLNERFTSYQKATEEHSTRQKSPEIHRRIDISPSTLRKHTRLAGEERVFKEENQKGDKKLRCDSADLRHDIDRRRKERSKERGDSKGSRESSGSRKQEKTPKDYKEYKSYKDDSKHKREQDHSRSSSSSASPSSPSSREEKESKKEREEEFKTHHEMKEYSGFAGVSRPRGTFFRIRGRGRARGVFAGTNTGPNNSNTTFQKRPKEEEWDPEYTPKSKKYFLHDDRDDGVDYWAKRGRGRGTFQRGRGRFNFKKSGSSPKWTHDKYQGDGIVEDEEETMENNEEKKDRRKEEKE
UniProt Q8TDH9: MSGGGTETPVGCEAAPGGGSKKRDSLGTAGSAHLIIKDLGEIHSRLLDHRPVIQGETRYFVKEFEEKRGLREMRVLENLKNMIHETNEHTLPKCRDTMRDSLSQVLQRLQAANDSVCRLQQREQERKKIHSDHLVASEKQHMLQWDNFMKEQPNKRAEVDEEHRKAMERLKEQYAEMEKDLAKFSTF
UniProt Q7KYR7: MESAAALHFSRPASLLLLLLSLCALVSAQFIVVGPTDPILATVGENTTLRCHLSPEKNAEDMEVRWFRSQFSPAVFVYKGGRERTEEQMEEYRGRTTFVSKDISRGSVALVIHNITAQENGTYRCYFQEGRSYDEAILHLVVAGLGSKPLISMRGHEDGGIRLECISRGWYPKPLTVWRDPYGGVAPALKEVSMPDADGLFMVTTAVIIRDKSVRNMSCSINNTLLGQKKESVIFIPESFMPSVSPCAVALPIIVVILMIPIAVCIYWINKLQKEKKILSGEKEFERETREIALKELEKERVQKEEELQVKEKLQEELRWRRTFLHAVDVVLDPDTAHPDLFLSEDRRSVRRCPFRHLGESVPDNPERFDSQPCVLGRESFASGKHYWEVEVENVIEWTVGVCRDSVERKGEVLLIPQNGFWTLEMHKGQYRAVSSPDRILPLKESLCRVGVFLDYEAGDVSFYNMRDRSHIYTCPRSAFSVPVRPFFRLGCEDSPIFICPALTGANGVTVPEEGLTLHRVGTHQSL
UniProt Q9UL15: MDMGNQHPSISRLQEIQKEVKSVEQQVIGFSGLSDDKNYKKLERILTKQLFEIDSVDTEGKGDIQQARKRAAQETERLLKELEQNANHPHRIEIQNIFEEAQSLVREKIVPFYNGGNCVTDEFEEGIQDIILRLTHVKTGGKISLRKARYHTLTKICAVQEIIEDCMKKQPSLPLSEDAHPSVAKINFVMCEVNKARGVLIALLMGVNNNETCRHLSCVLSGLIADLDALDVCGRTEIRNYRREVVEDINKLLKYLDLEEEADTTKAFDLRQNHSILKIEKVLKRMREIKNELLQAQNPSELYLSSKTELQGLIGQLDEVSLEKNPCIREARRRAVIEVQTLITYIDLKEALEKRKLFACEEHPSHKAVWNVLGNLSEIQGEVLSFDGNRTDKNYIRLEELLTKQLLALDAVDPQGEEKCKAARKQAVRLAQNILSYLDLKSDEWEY
UniProt Q92843: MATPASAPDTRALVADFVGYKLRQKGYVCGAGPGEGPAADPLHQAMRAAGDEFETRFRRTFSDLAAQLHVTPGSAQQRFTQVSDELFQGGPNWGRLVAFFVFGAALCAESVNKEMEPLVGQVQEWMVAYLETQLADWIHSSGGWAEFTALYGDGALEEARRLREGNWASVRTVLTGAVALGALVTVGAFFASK
UniProt Q96KE9: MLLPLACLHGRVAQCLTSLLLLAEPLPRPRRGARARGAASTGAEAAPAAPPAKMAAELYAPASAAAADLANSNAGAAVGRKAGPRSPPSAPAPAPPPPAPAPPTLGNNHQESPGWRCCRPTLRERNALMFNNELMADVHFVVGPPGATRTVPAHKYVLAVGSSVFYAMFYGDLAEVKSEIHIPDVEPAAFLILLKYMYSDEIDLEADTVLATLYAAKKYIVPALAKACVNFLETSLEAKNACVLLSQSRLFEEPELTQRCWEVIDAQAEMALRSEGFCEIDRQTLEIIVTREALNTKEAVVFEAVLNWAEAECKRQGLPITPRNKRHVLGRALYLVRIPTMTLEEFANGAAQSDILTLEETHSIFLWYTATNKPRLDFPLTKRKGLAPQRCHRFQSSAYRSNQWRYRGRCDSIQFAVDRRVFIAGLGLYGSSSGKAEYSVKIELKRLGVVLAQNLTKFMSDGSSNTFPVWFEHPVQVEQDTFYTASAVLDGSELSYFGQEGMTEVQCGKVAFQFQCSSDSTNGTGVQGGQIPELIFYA
UniProt O15155: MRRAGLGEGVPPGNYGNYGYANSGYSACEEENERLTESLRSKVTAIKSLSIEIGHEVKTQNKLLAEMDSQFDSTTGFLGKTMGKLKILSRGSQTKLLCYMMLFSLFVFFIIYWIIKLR
UniProt Q96GS4: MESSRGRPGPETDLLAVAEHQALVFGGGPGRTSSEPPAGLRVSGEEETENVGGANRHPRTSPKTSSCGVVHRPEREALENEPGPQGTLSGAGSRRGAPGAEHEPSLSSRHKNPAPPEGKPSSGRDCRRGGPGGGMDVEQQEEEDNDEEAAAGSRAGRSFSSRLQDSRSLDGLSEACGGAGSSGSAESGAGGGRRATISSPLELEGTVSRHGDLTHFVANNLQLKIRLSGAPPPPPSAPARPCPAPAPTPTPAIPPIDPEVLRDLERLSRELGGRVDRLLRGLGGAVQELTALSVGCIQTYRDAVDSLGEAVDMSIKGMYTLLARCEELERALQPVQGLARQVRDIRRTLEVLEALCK
UniProt O15392, whole entry, looked up: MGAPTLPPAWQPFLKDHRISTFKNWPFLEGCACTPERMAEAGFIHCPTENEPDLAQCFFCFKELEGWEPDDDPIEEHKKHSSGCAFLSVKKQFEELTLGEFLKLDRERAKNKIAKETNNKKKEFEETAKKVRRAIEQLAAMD
UniProt P21953: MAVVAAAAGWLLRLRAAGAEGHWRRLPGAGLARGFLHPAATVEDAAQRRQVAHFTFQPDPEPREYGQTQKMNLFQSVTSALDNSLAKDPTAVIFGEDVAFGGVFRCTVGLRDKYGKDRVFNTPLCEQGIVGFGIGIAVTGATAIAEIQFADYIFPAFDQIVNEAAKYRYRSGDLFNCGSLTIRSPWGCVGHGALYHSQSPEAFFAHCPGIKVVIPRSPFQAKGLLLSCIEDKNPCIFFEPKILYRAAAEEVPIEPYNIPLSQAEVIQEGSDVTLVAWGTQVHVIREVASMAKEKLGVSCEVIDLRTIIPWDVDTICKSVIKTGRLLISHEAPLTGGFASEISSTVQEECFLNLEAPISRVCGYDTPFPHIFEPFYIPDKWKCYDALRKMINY
UniProt P55957: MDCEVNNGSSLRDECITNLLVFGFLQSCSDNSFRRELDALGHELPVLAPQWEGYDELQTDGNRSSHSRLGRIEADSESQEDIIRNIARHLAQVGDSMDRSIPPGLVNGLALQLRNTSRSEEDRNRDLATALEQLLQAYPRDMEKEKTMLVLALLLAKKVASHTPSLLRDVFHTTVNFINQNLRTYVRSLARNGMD
UniProt Q6QNY0: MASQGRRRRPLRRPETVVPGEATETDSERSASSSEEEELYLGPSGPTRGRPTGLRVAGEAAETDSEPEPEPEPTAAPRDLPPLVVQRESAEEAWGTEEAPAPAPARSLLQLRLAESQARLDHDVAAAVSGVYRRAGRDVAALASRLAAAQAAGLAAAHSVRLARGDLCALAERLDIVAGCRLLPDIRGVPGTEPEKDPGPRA

log2 fold change, inactive:
BRD8 isoform 2 (UniProt Q9H0E9) -0.023
BAIAP2 (UniProt Q9UQB8) -0.016
BAG6 isoform 3 (UniProt P46379) 0.005
BPTF (UniProt Q12830) 0.003
BAG1 (UniProt Q99933) 0.011
BCL7B (UniProt Q9BQE9) 0.036
BCLAF1 (UniProt Q9NYF8) 0.03
BLOC1S5 (UniProt Q8TDH9) -0.019
BTN2A1 (UniProt Q7KYR7) 0.029
BAG5 isoform 2 (UniProt Q9UL15) -0.016
BCL2L2 isoform 2 (UniProt Q92843) 0.012
BRCA1 isoform 7 (UniProt P38398) 0
BRIX1 (UniProt Q8TDN6) -0.001
BCL7C isoform 2 (UniProt Q8WUZ0) -0.013
BTBD6 (UniProt Q96KE9) 0.168
BCOR (UniProt Q6W2J9) -0.007
BORCS5 (UniProt Q969J3) 0.128
BPHL (UniProt Q86WA6) 0.082
BET1 (UniProt O15155) 0.018
BNIP2 (UniProt J3KN59) 0.021
BORCS6 (UniProt Q96GS4) -0.003
BIRC5 (UniProt O15392) 0.067
BCAR1 isoform 6 (UniProt P56945) 0.021
BAG2 (UniProt O95816) -0.007
BARD1 (UniProt Q99728) 0.07
BTAF1 (UniProt O14981) 0.022
BSG (UniProt P35613) -0.022
BCAS2 (UniProt O75934) 0.037
BCKDHB (UniProt P21953) -0.012
BTF3L4 (UniProt Q96K17) 0.001
BID isoform 2 (UniProt P55957) 0.048
BCL2L13 (UniProt Q9BXK5) 0.044
BCKDK (UniProt O14874) 0.045
BLOC1S3 (UniProt Q6QNY0) -0.008

Looked up one by one from the entries so far (2):
log2 fold change, inactive:
BAG2 (UniProt O95816) -0.007
BRCA1 isoform 7 (UniProt P38398) 0
